# US9539222B2, “Methods to inhibit intracellular growth of bacteria and to treat bacteria-mediated diseases” (priority 2012, dated 2017)
# System: BCG
# Assay: microbe, parasite or virus in culture
# Type: cell-based
# Conditions: Mycobacterium tuberculosis variant bovis BCG, read-out: IC50 in MIC assay
smiles,measurement,value
"CCCCc1oc2ccccc2c1C(=O)c1cc(I)c(OCCN(CC)CC)c(I)c1 [amiodarone, (2-{4-[(2-butyl-1-benzofuran-3-yl)carbonyl]-2,6-diiodophenoxy}ethyl)diethylamine]",IC50,~9.6 µM
